Only a part is listed here, and it is no random draw. Single values of this set are uncertain.
These targets were tested with COC(=O)/C=C/c1ccccc1 [methyl cinnamate] (assay: log2 ratio of iodoacetamide-alkyne labeling of the cysteine site, DMSO over compound (competition); higher = stronger covalent engagement of the cysteine by the compound, active = 1 or more). Conditions: 500 µM; treatment time 1 h; system: HEK293T cell lysate.
Procedure, shortened: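 The log2 competition ratio per cysteine is defined as mean reporter intensity in control channels over mean reporter intensity in compound channels. Lysate from HEK293T cells (2 mg/mL) received electrophile (500 µM) or vehicle for 1 h at ambient temperature, followed by iodoacetamide alkyne for 1 h. Samples were clicked to sCIP-TMT reagents, pooled, trypsin-digested overnight at 37 °C, streptavidin-enriched, acid-eluted and run on Orbitrap Eclipse LC-MS/MS with FAIMS, with quantification in FragPipe. Three replicates with duplicate channels were used, and any cysteine quantified in only one replicate was excluded.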

By UniProt entry, the sequences of proteins in these tests, tags left out. Where a name states a change or a piece, a line headed by the entry shows the natural chain unless it says otherwise.
UniProt Q9H4B0: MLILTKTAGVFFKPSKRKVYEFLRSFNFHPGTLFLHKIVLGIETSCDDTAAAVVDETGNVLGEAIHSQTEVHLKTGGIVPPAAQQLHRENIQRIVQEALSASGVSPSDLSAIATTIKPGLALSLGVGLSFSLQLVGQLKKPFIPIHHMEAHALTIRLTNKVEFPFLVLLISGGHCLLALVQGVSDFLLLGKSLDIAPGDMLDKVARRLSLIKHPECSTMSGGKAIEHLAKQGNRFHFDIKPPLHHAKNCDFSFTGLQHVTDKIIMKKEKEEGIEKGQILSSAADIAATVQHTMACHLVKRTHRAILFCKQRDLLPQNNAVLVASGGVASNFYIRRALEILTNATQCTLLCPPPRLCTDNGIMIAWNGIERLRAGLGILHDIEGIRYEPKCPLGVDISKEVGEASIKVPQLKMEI
UniProt Q9NQS7, whole entry: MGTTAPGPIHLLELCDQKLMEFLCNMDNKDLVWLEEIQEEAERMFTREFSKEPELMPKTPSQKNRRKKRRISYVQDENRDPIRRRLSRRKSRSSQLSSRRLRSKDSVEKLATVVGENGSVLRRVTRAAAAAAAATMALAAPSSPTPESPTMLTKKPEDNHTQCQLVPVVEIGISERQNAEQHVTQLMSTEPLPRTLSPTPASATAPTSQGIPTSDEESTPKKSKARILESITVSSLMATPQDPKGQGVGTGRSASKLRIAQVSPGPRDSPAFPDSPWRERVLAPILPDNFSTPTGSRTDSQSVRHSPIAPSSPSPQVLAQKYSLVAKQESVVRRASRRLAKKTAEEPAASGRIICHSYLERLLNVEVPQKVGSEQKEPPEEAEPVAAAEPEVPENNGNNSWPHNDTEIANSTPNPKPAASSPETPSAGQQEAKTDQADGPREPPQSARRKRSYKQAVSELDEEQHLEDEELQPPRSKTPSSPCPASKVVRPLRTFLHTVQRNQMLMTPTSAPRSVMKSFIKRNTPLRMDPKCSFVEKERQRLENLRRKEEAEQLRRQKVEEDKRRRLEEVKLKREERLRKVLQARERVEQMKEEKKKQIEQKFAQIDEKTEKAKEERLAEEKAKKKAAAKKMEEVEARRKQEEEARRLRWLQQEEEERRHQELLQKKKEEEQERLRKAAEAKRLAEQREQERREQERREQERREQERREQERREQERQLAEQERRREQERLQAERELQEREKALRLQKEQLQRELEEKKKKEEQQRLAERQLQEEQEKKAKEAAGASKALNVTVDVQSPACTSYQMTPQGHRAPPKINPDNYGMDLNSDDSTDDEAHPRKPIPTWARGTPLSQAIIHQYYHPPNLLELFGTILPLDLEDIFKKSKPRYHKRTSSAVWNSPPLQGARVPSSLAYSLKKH
UniProt Q9H9Q2: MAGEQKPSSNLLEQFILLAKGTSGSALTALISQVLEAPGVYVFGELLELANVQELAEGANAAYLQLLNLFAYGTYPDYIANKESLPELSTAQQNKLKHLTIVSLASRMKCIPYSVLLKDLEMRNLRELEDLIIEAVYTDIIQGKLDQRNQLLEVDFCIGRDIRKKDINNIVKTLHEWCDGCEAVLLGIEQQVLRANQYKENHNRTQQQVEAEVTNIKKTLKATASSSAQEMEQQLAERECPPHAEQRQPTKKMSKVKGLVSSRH
UniProt Q9H5N1: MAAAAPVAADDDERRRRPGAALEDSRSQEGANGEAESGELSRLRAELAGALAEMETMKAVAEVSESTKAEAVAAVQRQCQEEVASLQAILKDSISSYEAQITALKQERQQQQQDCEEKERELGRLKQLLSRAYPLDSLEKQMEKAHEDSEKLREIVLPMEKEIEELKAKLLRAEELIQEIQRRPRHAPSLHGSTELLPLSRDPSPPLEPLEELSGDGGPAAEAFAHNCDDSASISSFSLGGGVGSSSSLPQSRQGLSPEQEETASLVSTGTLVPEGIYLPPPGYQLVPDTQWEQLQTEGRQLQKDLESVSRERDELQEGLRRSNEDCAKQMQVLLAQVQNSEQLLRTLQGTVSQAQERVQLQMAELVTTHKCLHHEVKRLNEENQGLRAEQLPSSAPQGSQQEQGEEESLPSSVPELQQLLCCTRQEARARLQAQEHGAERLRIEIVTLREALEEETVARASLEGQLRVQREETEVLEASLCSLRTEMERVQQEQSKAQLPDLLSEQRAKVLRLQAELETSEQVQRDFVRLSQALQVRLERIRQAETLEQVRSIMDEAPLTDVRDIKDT
UniProt Q9NP61: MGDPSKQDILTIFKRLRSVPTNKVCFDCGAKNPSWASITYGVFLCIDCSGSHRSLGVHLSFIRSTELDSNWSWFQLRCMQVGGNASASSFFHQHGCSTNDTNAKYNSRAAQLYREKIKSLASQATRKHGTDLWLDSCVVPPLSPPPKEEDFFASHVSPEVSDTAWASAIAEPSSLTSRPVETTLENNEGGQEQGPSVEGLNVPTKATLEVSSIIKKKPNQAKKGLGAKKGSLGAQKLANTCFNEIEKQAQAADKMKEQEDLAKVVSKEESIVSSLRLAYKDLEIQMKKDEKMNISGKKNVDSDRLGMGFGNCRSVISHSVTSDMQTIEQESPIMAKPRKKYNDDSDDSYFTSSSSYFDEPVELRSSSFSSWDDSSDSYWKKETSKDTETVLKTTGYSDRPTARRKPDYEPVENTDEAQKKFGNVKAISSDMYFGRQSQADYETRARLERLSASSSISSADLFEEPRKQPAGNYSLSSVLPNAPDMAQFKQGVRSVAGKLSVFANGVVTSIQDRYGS
UniProt Q9H3U1: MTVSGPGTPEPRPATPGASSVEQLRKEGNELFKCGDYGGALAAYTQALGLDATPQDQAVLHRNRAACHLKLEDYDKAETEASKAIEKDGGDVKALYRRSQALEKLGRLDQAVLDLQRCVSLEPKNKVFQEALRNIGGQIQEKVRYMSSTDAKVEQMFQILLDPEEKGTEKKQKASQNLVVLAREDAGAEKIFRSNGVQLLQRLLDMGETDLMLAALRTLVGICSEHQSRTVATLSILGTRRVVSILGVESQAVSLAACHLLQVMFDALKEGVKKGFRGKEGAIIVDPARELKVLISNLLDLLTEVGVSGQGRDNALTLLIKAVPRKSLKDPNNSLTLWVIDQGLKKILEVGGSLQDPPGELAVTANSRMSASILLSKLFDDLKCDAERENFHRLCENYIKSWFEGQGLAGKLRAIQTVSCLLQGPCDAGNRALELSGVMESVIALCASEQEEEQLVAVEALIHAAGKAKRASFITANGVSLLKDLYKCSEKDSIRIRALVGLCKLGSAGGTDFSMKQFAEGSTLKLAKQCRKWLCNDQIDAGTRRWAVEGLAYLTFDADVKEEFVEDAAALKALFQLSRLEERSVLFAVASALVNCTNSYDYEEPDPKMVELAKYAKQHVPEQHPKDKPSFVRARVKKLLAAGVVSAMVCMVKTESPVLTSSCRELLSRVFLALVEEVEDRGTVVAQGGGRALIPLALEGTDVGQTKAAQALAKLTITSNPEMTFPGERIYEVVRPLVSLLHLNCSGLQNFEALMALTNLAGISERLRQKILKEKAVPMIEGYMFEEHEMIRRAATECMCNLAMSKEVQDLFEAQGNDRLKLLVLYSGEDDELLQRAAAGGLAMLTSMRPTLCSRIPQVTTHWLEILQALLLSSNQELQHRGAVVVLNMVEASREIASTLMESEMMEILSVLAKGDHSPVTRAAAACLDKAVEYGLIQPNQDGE
UniProt Q9HAV4: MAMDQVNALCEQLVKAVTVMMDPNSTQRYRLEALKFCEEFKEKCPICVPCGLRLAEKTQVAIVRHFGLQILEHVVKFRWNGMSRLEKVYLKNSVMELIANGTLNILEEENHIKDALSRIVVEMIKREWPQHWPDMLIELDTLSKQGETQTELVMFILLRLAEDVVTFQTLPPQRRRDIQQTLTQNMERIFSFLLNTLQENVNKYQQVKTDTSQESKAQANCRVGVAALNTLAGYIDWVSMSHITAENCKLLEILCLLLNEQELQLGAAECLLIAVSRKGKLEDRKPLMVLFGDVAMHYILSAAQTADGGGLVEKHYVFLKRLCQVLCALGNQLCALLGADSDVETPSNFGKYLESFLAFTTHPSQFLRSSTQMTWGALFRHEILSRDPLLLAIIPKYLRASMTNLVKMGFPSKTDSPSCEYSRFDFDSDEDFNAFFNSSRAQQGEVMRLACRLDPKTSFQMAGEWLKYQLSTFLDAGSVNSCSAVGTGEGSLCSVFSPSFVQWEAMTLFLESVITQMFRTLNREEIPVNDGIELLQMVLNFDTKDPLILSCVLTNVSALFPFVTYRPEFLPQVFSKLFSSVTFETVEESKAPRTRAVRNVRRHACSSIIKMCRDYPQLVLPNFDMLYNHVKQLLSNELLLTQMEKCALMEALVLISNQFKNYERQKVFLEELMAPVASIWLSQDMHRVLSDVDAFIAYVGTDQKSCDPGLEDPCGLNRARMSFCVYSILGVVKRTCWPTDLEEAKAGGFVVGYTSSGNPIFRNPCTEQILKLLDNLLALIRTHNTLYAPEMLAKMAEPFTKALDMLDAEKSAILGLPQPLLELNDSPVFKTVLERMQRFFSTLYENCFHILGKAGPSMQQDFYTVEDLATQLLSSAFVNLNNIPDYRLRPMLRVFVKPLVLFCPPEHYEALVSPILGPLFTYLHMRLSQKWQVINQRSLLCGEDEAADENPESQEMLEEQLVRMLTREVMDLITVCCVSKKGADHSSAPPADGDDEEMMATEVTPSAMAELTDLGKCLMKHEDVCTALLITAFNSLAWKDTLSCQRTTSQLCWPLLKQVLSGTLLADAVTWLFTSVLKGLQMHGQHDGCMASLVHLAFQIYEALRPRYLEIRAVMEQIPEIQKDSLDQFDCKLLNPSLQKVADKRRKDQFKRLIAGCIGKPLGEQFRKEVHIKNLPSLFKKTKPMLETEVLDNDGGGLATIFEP
UniProt Q9H9A6: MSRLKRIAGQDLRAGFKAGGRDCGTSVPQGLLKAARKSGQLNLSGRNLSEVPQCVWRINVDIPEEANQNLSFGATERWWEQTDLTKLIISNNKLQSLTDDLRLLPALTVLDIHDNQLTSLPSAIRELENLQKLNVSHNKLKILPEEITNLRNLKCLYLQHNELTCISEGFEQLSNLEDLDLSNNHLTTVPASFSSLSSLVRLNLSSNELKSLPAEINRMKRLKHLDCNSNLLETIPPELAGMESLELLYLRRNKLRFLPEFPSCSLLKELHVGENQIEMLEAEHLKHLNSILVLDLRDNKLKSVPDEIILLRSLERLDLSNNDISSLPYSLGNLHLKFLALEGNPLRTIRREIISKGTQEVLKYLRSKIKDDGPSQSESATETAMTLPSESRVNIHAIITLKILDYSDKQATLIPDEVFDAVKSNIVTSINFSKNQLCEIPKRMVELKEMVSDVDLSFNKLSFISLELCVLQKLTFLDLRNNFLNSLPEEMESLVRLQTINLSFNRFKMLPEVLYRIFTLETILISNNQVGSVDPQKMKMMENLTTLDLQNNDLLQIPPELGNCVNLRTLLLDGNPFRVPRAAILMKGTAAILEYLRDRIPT
UniProt Q9H936: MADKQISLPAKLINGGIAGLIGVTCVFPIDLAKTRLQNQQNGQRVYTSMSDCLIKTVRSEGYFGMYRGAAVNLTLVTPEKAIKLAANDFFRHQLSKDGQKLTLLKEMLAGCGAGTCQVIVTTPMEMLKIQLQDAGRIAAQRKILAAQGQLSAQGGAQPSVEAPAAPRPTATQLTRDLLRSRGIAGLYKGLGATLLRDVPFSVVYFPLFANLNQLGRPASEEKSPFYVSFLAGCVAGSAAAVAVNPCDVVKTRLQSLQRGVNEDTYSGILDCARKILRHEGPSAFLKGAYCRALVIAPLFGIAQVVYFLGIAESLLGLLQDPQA
UniProt Q9NR31: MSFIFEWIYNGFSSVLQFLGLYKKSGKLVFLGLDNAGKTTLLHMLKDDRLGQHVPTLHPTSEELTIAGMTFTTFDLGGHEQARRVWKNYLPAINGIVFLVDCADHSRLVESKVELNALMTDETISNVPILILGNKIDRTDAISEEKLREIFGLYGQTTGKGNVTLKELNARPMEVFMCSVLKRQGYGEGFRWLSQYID
UniProt Q9H6Y2: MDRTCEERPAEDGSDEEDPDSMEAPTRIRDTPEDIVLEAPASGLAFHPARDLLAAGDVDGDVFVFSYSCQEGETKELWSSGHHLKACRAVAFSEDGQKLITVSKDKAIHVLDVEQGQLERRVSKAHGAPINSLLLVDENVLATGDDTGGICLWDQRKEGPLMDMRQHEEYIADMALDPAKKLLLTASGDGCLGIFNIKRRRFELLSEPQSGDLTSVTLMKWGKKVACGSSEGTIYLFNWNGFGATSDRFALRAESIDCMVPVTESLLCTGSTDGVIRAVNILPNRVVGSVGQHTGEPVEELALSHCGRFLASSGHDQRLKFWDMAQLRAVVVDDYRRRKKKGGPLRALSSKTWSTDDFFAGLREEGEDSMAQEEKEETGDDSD

log2 ratio of iodoacetamide-alkyne labeling, inactive:
HELLS C205 (UniProt Q9NRZ9) 0.121
OSGEPL1 C356 (UniProt Q9H4B0) 0.236
INCENP C163 (UniProt Q9NQS7) -0.0141
COPS7B C240 (UniProt Q9H9Q2) 0.0494
RABEP2 C115 (UniProt Q9H5N1) 0.61
ARFGAP3 C312 (UniProt Q9NP61) 0.418
UNC45A C927 (UniProt Q9H3U1) 0.176
XPO5 C941 (UniProt Q9HAV4) -0.0404
LRRC40 C227 (UniProt Q9H9A6) -0.081
UniProt Q9H993_C398 -0.012
SLC25A22 C25 (UniProt Q9H936) 0.0886
BAZ1A C893 (UniProt Q9NRL2) 0.399
MDN1 C3492 (UniProt Q9NU22) 0.108
SAR1A C178 (UniProt Q9NR31) 0.183
WDR55 C306 (UniProt Q9H6Y2) -0.0365

Reprinted from above for reference:
log2 ratio of iodoacetamide-alkyne labeling, inactive:
UNC45A C927 (UniProt Q9H3U1) 0.176
XPO5 C941 (UniProt Q9HAV4) -0.0404

Source: the supplement of paper PMC11006884
